From patent publication US20170306048A1 come the findings set out here.

The chains behind the UniProt entries cited, without tags or fusion partners. Residues count along the entry.
UniProt P40763, residues 2-770: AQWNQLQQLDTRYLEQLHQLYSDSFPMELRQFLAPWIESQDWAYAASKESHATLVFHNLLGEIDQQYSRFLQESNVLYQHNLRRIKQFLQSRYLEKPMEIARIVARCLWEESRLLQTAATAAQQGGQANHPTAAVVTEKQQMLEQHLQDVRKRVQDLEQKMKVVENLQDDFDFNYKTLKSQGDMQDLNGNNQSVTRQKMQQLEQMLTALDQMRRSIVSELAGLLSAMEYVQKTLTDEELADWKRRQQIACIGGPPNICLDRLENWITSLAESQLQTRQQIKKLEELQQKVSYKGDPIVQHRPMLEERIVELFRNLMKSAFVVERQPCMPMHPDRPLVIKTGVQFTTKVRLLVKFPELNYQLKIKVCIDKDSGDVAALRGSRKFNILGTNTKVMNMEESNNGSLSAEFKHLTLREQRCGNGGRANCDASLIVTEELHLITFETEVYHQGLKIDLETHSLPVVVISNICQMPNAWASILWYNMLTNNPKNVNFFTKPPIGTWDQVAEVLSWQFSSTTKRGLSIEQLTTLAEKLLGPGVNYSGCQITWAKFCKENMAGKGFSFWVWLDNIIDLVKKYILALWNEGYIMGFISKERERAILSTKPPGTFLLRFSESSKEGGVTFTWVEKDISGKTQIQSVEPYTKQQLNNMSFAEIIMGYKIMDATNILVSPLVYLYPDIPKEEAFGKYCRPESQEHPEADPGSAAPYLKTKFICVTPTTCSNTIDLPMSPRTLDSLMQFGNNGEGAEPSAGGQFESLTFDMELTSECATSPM

For test [1], the target named is human STAT3, endogenous, in human cell lines (U251, MDA-MB-468, HeLa, MCF-10A, MCF-7, COLO205) (human) (UniProt P40763). In words: high throughput flow cytometry on permeabilised U251 cells.
For test [2] the target is unchanged. Briefly: flow cytometry (HTFC) on permeabilised U251 cells, PE anti-human IgG.

These are yes or no findings as the source states them, for the method shown. Some binding calls cover weakened binding; strength is not graded here.

B1: ST3G12-PS antibody conjugate (compound 901) (antibody, V domains shown)
VH: QVQLVQSGAEVKKPGASVKVSCKASGYTFTSYYMHWVRQAPGQGLEWMGIINPSGGSTSYAQKFQGRVTMTRDTSTSTVYMELSSLRSEDTAVYYCARSDYVHSFDIWGQGTMVTVSS
VL: QPVLTQPPSASALLGASIKLTCTLSSEHSTYTVEWYQQRPGRSPQYIMNVKSDGSYNKGDGIPDRFMGSSSGADRYLTFSNLQSDDEAEYHCGESHRIDGQVGVVFGGGTKLTVL
With B1, the binding entry in test [1] and in test [2] was “binds” each time.
